Measured values published in patent US9273341B2, “Methods for treatment of bacterial infections” (THE JOHNS HOPKINS UNVIERSITY, priority 2010, dated 2016).
Converted amounts (≈) assume the structure as drawn.

Tested on: M. tuberculosis mutant strain lacking LdtMt2 (ldtMt2::Tn)
Assay type: cell-based

## NNC(=O)c1ccncc1 [isoniazid]
  MIC: 0.03 µg/mL (≈ 0.219 µM)
